Data source: PubChem BioAssay AID1259405 (NCATS, 2018)
Test: 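Mouse-designed siRNAs used to find CHO productivity engineering targets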 (primary screen). System: Chinese hamster CHO-K1 ovary cells with stable secreted eGFP expression. Knock-down reagent: single siRNA against mouse genes, 0.8 pmol siRNA per well (2 µl of 400 nM stock). Duration: 3 days. Detection: 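Percent of the per-plate non-targeting control median for intracellular GFP per well by laser scanning cytometry and for cell viability by ATP luminescence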. Scale: GFP, % of control: higher = more GFP per well, higher productivity; viability (ATP), % of control: higher = more viable cells (more ATP). Call rule: 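Called active when intracellular GFP, relative to negative control, is at or above 120%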.
The deposit covers about 50,000 reagents; below is an unselected part. About 4,000 of them (8%) were called active. 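Mouse siRNA library applied to hamster cells; one well for each siRNA.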 Reagents against one gene are numbered here. Reagent sequences are not shown.

no.	gene symbol	siRNA no.	GFP, % of control	viability (ATP), % of control	Outcome
1	Tekt3 (GeneID 71062)	1	77.3	96.5	inactive
2	Tekt3 (GeneID 71062)	2	83.2	91.7	inactive
3	Sgpp1 (GeneID 81535)	1	77.9	46.3	inactive
4	Sgpp1 (GeneID 81535)	2	59.7	32	inactive
5	Sgpp1 (GeneID 81535)	3	112	67.6	inactive
6	Or4d2b (GeneID 258406)	1	92.1	81.4	inactive
7	Or4d2b (GeneID 258406)	2	71.7	68.9	inactive
8	Or4d2b (GeneID 258406)	3	131	111	active
9	Or4k35 (GeneID 258391)	1	68	64.1	inactive
10	Or4k35 (GeneID 258391)	2	108	38	inactive
11	Or4k35 (GeneID 258391)	3	82.3	96.9	inactive
12	Duoxa1 (GeneID 213696)	1	95.8	72.6	inactive
13	Duoxa1 (GeneID 213696)	2	94.6	105	inactive
14	Duoxa1 (GeneID 213696)	3	177	138	active
15	Cacna1d (GeneID 12289)	1	71.3	94.9	inactive
16	Cacna1d (GeneID 12289)	2	101	77.4	inactive
17	Cacna1d (GeneID 12289)	3	76.3	50.4	inactive
18	Vav1 (GeneID 22324)	1	87.6	74.7	inactive
19	Vav1 (GeneID 22324)	2	89.6	80.2	inactive
20	Vav1 (GeneID 22324)	3	67.6	71.9	inactive
21	Malt1 (GeneID 240354)	1	79.3	84.6	inactive
22	Malt1 (GeneID 240354)	2	149	98.1	active
23	Rab10os (GeneID 74173)	1	103	112	inactive
24	Rab10os (GeneID 74173)	2	74	90.2	inactive
25	Rab10os (GeneID 74173)	3	95.4	102	inactive

No new results follow: 7 of the entries above.
no.	gene symbol	siRNA no.	GFP, % of control	viability (ATP), % of control	Outcome
15	Cacna1d (GeneID 12289)	1	71.3	94.9	inactive
16	Cacna1d (GeneID 12289)	2	101	77.4	inactive
17	Cacna1d (GeneID 12289)	3	76.3	50.4	inactive
18	Vav1 (GeneID 22324)	1	87.6	74.7	inactive
19	Vav1 (GeneID 22324)	2	89.6	80.2	inactive
20	Vav1 (GeneID 22324)	3	67.6	71.9	inactive
21	Malt1 (GeneID 240354)	1	79.3	84.6	inactive

The results go on.
no.	gene symbol	siRNA no.	GFP, % of control	viability (ATP), % of control	Outcome
26	Il18r1 (GeneID 16182)	1	126	107	active
27	Il18r1 (GeneID 16182)	2	64.3	81.8	inactive
28	Il18r1 (GeneID 16182)	3	66.5	80.6	inactive
29	Fam3d (GeneID 18300)	1	60.9	54.5	inactive
30	Fam3d (GeneID 18300)	2	145	69.3	active
31	Fam3d (GeneID 18300)	3	89.9	68.1	inactive
32	Ska2 (GeneID 66140)	1	76.2	83.8	inactive
33	Ska2 (GeneID 66140)	2	123	108	active
34	Ska2 (GeneID 66140)	3	76	55.3	inactive
35	Chmp1a (GeneID 234852)	1	65.9	51.4	inactive
36	Chmp1a (GeneID 234852)	2	98.7	66.8	inactive
37	Chmp1a (GeneID 234852)	3	108	47.3	inactive
38	Mmp1b (GeneID 83996)	1	42.8	34.2	inactive
39	Mmp1b (GeneID 83996)	2	91.1	99.9	inactive
40	Mmp1b (GeneID 83996)	3	73.4	73.3	inactive
41	Vmn2r7 (GeneID 319217)	1	100	83.7	inactive
42	Vmn2r7 (GeneID 319217)	2	75.2	113	inactive
43	Vmn2r7 (GeneID 319217)	3	81.1	99	inactive
44	Dnajb2 (GeneID 56812)	1	86.5	91.3	inactive
45	Dnajb2 (GeneID 56812)	2	52.1	91.5	inactive
46	Dnajb2 (GeneID 56812)	3	46.7	110	inactive
47	Elmod1 (GeneID 270162)	1	66	32.6	inactive
48	Elmod1 (GeneID 270162)	2	88.6	46.6	inactive
49	Elmod1 (GeneID 270162)	3	84.5	70.9	inactive
50	Prl (GeneID 19109)	1	40.2	69.7	inactive
51	Prl (GeneID 19109)	2	52.5	69	inactive
52	Prl (GeneID 19109)	3	108	112	inactive
53	Rps2 (GeneID 16898)	1	44.9	51.2	inactive
54	Rps2 (GeneID 16898)	2	54.4	57.9	inactive
55	Rps2 (GeneID 16898)	3	86.2	100	inactive
56	Pcp4 (GeneID 18546)	1	56	64	inactive
57	Pcp4 (GeneID 18546)	2	66.4	81.5	inactive
58	Pcp4 (GeneID 18546)	3	58.2	69.2	inactive
